Reference: the supplement of paper PMC9135407
Where “and” joins values, the source holds several entries; their conditions need not be identical. Equal entries are not always repeated. Structures can show the parent of a compound that is named as a salt. ± gives the standard deviation of the averaged measurements. This is one part of the list. Plates or batches differ in their baseline, so values are only roughly comparable.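 Assay uses culture-activated primary human stellate myofibroblasts; lipid droplet recovery indicates inactivation. Measured: proportion of Hoechst-counted cells over a plate-specific Bodipy cutoff, duplicate wells, DMSO and nortriptyline as per-plate negative and positive controls. A hit scores, control-normalized, above the plate's top-tenth-percentile nortriptyline wells or ranks among its three best wells. Final well concentrations not reported.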

Test system: primary human hepatic stellate cells (donor 1)
Experiment: percent Bodipy-positive cells; higher = more lipid droplet accumulation
Conditions: 48 h
[1] = library stock concentration: 80 uM
[2] = library stock concentration: 400 uM
[3] = library stock concentration: 10 mM
[4] = library stock concentration: 3.33 mM
[5] = library stock concentration: 1 mM
[6] = library stock concentration: 2 mM

COc1cc2/c(=N/c3ccc(Br)cc3F)nc[nH]c2cc1OCC1CCN(C)CC1 [Vandetanib]
percent Bodipy-positive cells [1]: 14.4 ± 1.5%
percent Bodipy-positive cells [2]: 43.8 ± 9.2%

COc1cc2/c(=N/c3ccc(Br)cc3F)nc[nH]c2cc1OCC1CCN(C)CC1 [Vandetanib  (ZD6474, Zactima) (10 mM)]
percent Bodipy-positive cells [3]: 98.6 ± 2%

COc1cc2/c(=N/c3ccc(Br)cc3F)nc[nH]c2cc1OCC1CCN(C)CC1 [Vandetanib (ZD6474)]
percent Bodipy-positive cells [3]: 99.1 ± 1.2%

C/C(=C(\CCOP(=O)(O)O)SC(=O)c1ccccc1)N(C=O)Cc1cnc(C)nc1N [Benfotiamine]
percent Bodipy-positive cells: 9.77 ± 3.9%
percent Bodipy-positive cells [3]: 27.9 ± 5.8%

Nc1ccc2cn[nH]c2c1
percent Bodipy-positive cells [3]: 5.39 ± 0.2%

Cc1cc(OCCCS(C)(=O)=O)cc(C)c1-c1cccc(COc2ccc3c(c2)OC[C@H]3CC(=O)O)c1
percent Bodipy-positive cells [4]: 14.3 ± 0.65%
percent Bodipy-positive cells [3]: 51.7 ± 25%

O=C(CCCCCN1C(=O)c2cccc3cccc(c23)C1=O)NO [Scriptaid]
percent Bodipy-positive cells [4]: 60.7 ± 2.4%

C=C[C@@]1(C)CC(=O)[C@]2(O)[C@@]3(C)[C@@H](O)CCC(C)(C)[C@@H]3[C@H](O)[C@H](OC(C)=O)[C@@]2(C)O1 [Colforsin]
percent Bodipy-positive cells (library stock concentration: 4.9 mM): 12.3 ± 2%
percent Bodipy-positive cells [3]: 41.4 ± 6.1%

C=C[C@@]1(C)CC(=O)[C@]2(O)[C@@]3(C)[C@@H](O)CCC(C)(C)[C@@H]3[C@H](O)[C@H](OC(C)=O)[C@@]2(C)O1 [Forskolin]
percent Bodipy-positive cells [4]: 10.7 ± 2%
percent Bodipy-positive cells (library stock concentration: 12.2 mM): 11.2 ± 8.6%

CN(Cc1cnc2nc(N)nc(N)c2n1)c1ccc(C(=O)NC(CCC(=O)O)C(=O)O)cc1 (racemic) [Methotrexate(+/-)]
percent Bodipy-positive cells (library stock concentration: 4.4 mM): 5.75 ± 0.61%
percent Bodipy-positive cells [3]: 15 ± 6.4%

NC(=O)N1C(=O)/C(=C(\O)c2cccs2)c2cc(Cl)ccc21 [Tenidap]
percent Bodipy-positive cells [3]: 6.3 ± 2.2%

CCN(CC)CCOC(=O)C(Cc1cccc2ccccc12)CC1CCCO1 (stereo not drawn) [Nafronyl oxalate]
percent Bodipy-positive cells: 49.3 ± 1.4%
percent Bodipy-positive cells [3]: 38.6 ± 25%

CC1(C)S[C@@H]2[C@H](NC(=O)C(C(=O)O)c3ccccc3)C(=O)N2[C@H]1C(=O)O (stereo partly drawn) [Carbenicillin disodium]
percent Bodipy-positive cells [4]: 13.8 ± 5.1%
percent Bodipy-positive cells (library stock concentration: 4.7 mM): 3.3 ± 0.17%
percent Bodipy-positive cells [3]: 32.8% and 12.4%

COc1ccc(-c2nc(-c3ccc(-c4cccc(Cl)c4)o3)[nH]c2-c2ccc(OC)cc2)cc1 [Neurodazine]
percent Bodipy-positive cells [5]: 52.5 ± 0.96%
percent Bodipy-positive cells [3]: 15.5 ± 2.3%

CC/C=C\C/C=C\C/C=C\C/C=C\C/C=C\CCCC(=O)O[C@H](COCCCCCCCCCCCCCCCC)COP(=O)([O-])OCC[N+](C)(C)C [Eicosapentaenoyl PAF C-16]
percent Bodipy-positive cells [5]: 15.6 ± 2.5%

C[C@H](N)[C@H](O)c1cccc(O)c1 [Metaraminol bitartrate]
percent Bodipy-positive cells: 30.1 ± 7.6%
percent Bodipy-positive cells (library stock concentration: 6.3 mM): 28.4 ± 24%
percent Bodipy-positive cells [3]: 37.9 ± 6.3%

COc1ccc(C(=O)/C(Br)=C\C(=O)O)cc1 [Bromebric acid]
percent Bodipy-positive cells (library stock concentration: 7 mM): 8.69 ± 5.3%

CCN(CC)CCNC(=O)c1c(C)[nH]c(/C=C2\C(=O)Nc3ccc(F)cc32)c1C.O=C(O)C[C@H](O)C(=O)O
percent Bodipy-positive cells [6]: 100%

CCOC(=O)C1=C(COCCN)NC(C)=C(C(=O)OC)C1c1ccccc1Cl.O=S(=O)(O)c1ccccc1 (stereo not drawn) [Amlodipine besylate]
percent Bodipy-positive cells [3]: 87.4 ± 0.94%

CCCCCC(=O)/C=C/[C@@H]1[C@H](C/C=C\CCCC(=O)O)[C@H](O)C[C@H]1O [8-iso-15-keto Prostaglandin F2.beta.]
percent Bodipy-positive cells [5]: 8.73 ± 2.4%

CCCCCCC(=O)SC[C@H](COP(=O)([O-])OCC[N+](C)(C)C)SC(=O)CCCCCC [1,2-bis(heptanoylthio) Glycerophosphocholine]
percent Bodipy-positive cells [5]: 8.62 ± 1.9%

Cc1ccccc1OCC(O)CO (stereo not drawn) [Mephenesin]
percent Bodipy-positive cells: 23.3 ± 2.1%
percent Bodipy-positive cells [3]: 31.7 ± 15%
percent Bodipy-positive cells (library stock concentration: 11 mM): 22.8 ± 3.9%

COc1cc(N2CCN(C)CC2)ccc1Nc1nc(N)c(C(=O)c2c(Cl)cccc2Cl)s1
percent Bodipy-positive cells [1]: 18.1 ± 2.9%
percent Bodipy-positive cells [2]: 14.4 ± 5.2%
percent Bodipy-positive cells [6]: 29.7 ± 3.6%
percent Bodipy-positive cells [3]: 79.2 ± 5.4%

CC1=C(CC(=O)O)c2cc(F)ccc2/C1=C\c1ccc(S(C)(=O)=O)cc1 [Sulindac sulfone]
percent Bodipy-positive cells [3]: 11.5 ± 8.9%

CC(C)N(CCCNC(=O)Nc1ccc(C(C)(C)C)cc1)C[C@H]1O[C@@H](n2cc(Br)c3c(N)ncnc32)[C@H](O)[C@@H]1O
percent Bodipy-positive cells [4]: 61.5 ± 7.3%

CS(=O)(=O)c1ccc(-c2cc(Br)sc2-c2ccc(F)cc2)cc1
percent Bodipy-positive cells [5]: 16.4 ± 15%
percent Bodipy-positive cells [3]: 10.4% and 7.87%

O=C1CN(/N=C/c2ccc([N+](=O)[O-])o2)C(=O)N1 [Nitrofurantoin]
percent Bodipy-positive cells: 27 ± 3.6%
percent Bodipy-positive cells [3]: 7.46 ± 3.3%

O=C1CN(/N=C/c2ccc([N+](=O)[O-])o2)C(=O)N1
percent Bodipy-positive cells [3]: 31.4 ± 14%

Cc1nc2sccn2c(=O)c1CCN1CCC(=C(c2ccccc2)c2ccc(F)cc2)CC1
percent Bodipy-positive cells [1]: 11.1 ± 0.89%
percent Bodipy-positive cells [2]: 13.3 ± 0.84%
percent Bodipy-positive cells [6]: 12.7 ± 1.1%
percent Bodipy-positive cells [3]: 44.5% and 20%

OCCN1CCN(CCCN2c3ccccc3Sc3ccc(Cl)cc32)CC1
percent Bodipy-positive cells [3]: 94.8 ± 1.7%

O=C(NCCCNc1nc(Nc2cccc(NC(=O)N3CCCC3)c2)ncc1I)c1cccs1
percent Bodipy-positive cells [3]: 94.8 ± 1%

CC(C)(C)C(=O)C(Oc1ccc(Cl)cc1)n1ccnc1 (stereo not drawn) [Climbazole]
percent Bodipy-positive cells [4]: 14.5 ± 4.5%
percent Bodipy-positive cells (library stock concentration: 6.8 mM): 7.08 ± 2.1%
percent Bodipy-positive cells [3]: 38 ± 2.1%

CN[C@@H]1[C@@H](O)[C@@H](O[C@@H]2[C@@H](O)[C@H](O[C@H]3OC(CN)=CC[C@H]3N)[C@@H](N)C[C@H]2N)OC[C@]1(C)O [Sisomicin sulfate]
percent Bodipy-positive cells: 40.9 ± 15%
percent Bodipy-positive cells [3]: 13.4 ± 4.6%

Cc1cc(NS(=O)(=O)c2ccc(N)cc2)no1 [Sulfamethoxazole]
percent Bodipy-positive cells: 31.5 ± 4.1%
percent Bodipy-positive cells [4]: 6.08 ± 1.6%
percent Bodipy-positive cells (library stock concentration: 7.9 mM): 12 ± 3.5%
percent Bodipy-positive cells [3]: 13.1% and 30.5%

CCCCCCCCC=CCCCCCCCCOCCOP(=O)([O-])OCC[N+](C)(C)C [Oleyloxyethyl Phosphorylcholine]
percent Bodipy-positive cells [5]: 11.2 ± 1.1%
